# Measurements reported in the supplement of paper PMC6411743.
# The chains behind the UniProt entries cited, without tags or fusion partners. Where a name states a change or a piece, a line headed by the entry shows the natural chain unless it says otherwise.
# UniProt A4D1P6: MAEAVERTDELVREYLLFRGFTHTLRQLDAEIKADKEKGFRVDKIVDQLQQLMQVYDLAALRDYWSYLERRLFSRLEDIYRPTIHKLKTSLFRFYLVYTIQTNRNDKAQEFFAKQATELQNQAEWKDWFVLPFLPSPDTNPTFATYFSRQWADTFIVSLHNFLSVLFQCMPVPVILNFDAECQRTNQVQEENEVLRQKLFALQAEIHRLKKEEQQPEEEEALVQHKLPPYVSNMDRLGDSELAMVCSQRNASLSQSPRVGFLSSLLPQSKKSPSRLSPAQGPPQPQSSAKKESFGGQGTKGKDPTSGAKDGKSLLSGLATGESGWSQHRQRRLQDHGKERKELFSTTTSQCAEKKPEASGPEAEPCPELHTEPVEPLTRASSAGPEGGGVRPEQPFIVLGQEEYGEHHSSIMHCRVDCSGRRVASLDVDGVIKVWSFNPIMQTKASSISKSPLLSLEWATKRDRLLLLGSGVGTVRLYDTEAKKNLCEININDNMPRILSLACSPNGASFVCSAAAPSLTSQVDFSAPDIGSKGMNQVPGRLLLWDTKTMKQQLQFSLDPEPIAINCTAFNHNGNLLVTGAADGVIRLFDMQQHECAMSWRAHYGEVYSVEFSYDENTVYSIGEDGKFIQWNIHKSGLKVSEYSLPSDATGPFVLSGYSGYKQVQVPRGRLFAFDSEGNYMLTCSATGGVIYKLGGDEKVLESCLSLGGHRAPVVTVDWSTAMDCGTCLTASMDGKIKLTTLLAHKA
# UniProt A0MZ66, whole entry: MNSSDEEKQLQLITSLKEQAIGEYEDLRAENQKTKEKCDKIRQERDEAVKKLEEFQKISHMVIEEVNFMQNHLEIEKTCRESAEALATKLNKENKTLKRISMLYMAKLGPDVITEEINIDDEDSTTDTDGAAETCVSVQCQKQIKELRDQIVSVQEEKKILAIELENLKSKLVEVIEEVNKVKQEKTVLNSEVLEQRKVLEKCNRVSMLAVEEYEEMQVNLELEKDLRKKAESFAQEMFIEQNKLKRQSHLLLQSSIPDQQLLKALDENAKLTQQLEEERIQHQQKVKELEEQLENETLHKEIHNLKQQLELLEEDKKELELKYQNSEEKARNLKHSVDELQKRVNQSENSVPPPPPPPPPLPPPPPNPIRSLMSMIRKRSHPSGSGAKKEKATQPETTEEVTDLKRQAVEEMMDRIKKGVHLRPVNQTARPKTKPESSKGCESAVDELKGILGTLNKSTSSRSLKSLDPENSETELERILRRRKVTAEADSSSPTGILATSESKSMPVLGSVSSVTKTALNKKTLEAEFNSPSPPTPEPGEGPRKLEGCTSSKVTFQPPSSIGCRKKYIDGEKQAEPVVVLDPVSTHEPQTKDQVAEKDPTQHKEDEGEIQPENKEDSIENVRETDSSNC
# UniProt Q03518, whole entry: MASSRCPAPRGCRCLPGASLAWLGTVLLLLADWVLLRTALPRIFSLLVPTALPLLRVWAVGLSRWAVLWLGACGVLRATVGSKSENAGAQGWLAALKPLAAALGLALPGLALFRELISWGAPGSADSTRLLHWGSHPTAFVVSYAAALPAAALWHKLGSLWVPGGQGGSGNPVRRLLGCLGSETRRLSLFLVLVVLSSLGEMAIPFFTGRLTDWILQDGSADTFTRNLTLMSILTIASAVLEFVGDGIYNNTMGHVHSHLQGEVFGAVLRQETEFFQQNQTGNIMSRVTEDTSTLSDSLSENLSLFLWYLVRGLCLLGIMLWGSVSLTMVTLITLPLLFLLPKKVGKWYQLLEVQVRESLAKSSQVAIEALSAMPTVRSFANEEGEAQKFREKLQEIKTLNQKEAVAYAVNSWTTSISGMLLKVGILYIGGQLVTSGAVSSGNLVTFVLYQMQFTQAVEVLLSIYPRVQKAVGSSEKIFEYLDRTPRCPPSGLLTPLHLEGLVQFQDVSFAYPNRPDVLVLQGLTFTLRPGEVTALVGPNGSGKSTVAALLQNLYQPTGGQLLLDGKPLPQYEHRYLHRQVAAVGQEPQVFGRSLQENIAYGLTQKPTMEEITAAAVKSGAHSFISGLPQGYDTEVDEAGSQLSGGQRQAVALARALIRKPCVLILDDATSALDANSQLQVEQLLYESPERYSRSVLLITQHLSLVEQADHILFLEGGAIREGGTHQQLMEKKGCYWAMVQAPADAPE
# UniProt Q643R3: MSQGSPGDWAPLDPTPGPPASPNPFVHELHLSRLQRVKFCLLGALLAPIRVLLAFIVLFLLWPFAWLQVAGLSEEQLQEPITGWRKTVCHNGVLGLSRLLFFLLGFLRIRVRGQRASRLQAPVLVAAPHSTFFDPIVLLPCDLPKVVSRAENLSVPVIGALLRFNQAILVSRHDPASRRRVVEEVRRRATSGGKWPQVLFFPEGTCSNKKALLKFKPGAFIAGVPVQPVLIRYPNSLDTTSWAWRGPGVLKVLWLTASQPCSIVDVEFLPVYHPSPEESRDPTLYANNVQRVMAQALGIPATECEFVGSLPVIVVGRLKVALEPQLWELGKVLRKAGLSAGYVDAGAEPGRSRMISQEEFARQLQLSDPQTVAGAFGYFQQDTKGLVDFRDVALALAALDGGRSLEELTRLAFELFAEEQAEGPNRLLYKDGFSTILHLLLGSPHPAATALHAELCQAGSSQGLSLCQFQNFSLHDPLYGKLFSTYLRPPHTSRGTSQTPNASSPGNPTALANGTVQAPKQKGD
# UniProt Q9BY42: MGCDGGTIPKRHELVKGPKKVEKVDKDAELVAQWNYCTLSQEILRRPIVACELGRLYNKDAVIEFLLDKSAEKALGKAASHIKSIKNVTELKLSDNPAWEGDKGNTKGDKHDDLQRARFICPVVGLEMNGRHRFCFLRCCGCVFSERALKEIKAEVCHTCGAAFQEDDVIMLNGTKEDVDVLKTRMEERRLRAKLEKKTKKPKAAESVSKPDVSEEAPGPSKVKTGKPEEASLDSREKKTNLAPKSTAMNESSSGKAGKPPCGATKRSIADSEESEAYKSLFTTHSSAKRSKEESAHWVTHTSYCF
# UniProt Q2M389: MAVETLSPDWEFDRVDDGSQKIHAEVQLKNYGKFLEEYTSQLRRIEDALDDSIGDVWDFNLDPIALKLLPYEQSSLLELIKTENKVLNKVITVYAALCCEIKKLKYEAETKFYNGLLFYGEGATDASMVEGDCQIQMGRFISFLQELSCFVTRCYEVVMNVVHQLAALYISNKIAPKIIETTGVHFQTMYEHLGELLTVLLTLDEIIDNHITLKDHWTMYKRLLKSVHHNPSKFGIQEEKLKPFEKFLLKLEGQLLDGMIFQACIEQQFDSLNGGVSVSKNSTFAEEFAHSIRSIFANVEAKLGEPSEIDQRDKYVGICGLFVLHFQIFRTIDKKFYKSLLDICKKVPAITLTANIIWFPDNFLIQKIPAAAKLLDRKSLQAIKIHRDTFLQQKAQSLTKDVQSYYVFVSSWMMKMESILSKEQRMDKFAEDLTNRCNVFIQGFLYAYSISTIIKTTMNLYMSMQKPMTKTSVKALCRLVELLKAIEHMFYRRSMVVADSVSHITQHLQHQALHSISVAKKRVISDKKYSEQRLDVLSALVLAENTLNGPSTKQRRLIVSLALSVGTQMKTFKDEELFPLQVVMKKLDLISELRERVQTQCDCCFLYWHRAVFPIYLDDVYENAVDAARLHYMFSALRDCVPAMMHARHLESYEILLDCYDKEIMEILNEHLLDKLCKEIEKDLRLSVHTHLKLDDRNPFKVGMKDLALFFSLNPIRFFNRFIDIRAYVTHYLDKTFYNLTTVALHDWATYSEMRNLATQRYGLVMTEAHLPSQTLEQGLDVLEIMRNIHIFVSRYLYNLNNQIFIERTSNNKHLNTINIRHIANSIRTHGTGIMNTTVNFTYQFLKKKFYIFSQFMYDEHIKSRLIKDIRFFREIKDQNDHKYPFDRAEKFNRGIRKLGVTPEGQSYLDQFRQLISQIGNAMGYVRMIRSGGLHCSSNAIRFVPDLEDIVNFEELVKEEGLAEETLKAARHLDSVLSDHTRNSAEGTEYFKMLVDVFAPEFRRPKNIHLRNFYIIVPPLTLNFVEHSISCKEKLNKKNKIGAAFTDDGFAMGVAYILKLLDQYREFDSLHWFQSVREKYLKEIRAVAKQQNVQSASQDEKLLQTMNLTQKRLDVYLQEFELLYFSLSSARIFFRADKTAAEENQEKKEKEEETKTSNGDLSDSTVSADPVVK
# UniProt Q9UPN6: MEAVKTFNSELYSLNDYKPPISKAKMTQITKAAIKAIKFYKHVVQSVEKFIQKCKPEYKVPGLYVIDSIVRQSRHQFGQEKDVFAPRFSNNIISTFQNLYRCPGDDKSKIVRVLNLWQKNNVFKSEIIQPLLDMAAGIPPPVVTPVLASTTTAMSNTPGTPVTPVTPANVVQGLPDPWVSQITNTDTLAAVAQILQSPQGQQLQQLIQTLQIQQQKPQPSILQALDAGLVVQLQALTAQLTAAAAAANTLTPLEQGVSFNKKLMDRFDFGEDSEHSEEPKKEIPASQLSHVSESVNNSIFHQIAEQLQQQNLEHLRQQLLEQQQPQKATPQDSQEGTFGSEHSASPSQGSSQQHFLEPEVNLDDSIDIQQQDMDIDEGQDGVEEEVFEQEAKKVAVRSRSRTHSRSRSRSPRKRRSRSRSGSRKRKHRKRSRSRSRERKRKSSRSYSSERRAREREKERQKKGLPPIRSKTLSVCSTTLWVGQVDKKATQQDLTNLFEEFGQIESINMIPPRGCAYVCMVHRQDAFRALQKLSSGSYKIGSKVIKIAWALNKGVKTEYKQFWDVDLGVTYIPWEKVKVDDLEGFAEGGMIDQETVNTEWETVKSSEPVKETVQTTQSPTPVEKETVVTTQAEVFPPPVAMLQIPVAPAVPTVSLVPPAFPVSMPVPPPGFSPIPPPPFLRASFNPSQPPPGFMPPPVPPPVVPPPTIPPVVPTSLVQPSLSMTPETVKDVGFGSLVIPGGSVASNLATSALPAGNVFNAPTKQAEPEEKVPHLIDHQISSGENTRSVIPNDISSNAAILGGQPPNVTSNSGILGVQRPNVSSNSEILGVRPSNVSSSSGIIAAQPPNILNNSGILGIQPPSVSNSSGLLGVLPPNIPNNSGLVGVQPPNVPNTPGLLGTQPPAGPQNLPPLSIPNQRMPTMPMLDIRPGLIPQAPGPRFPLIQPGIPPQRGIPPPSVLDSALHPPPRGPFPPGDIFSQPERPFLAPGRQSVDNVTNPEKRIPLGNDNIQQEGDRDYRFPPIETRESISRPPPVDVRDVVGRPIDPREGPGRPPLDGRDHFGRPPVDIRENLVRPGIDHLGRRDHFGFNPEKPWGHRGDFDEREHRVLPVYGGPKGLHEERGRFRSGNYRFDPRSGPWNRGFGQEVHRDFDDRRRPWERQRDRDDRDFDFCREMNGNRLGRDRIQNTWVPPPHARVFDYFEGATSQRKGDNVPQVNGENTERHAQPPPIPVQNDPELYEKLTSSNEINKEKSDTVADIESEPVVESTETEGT
# UniProt Q6PJG2: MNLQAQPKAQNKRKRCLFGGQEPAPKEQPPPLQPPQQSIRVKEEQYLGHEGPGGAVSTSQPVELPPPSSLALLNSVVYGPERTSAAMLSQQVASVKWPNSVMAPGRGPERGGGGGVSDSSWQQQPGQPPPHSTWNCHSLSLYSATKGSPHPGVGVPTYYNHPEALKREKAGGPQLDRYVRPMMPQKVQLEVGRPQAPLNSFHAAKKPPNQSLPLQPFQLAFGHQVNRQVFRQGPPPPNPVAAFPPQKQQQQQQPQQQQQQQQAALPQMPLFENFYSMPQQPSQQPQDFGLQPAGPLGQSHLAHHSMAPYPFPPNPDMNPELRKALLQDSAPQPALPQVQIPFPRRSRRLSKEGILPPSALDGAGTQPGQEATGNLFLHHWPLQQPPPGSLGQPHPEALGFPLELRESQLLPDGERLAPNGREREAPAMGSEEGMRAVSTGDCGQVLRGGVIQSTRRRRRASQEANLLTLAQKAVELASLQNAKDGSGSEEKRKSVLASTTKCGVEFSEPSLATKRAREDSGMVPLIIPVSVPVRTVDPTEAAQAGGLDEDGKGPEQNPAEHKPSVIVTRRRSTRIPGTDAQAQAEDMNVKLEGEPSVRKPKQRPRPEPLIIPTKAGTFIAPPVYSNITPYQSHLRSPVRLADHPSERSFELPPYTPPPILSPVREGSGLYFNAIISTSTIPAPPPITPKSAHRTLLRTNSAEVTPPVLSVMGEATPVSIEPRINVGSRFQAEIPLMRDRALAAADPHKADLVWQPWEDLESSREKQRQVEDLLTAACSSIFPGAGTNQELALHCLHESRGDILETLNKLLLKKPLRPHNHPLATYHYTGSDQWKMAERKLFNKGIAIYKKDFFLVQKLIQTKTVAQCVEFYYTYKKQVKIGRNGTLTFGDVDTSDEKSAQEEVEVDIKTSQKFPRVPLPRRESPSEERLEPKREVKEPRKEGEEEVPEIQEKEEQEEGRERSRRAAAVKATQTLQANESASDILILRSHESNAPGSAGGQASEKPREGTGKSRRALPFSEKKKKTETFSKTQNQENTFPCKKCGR
# ± gives the standard deviation of the averaged measurements. The list shows a part of the results.
# Compound: Nc1nc2c(ncn2[C@@H]2O[C@H](COP(=O)(O)OP(=O)(O)OP(=O)(O)O)[C@@H](O)[C@H]2O)c(=O)[nH]1 [guanosine triphosphate]
# Test: NP40-soluble protein abundance relative to vehicle (solubility fold change) (ratio); higher = more soluble protein in presence of GTP
# Method in brief: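 Eight concentrations, 0.1 to 10 mM, were tested on Jurkat crude lysate for 10 min at room temperature and then 3 min at 37 °C, in three independent experiments. The lysate was solubilised with 0.8% NP40 and benzonase, ultracentrifuged, and the supernatant TMT-labelled for LC-MS/MS. Each value is the fold change against the detergent-processed vehicle in its own replicate, from vsn-normalised intensities.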
Target,NP40-soluble protein abundance (concentration: 0.1mM),NP40-soluble protein abundance (concentration: 0.5mM),NP40-soluble protein abundance (concentration: 1mM),NP40-soluble protein abundance (concentration: 2mM),NP40-soluble protein abundance (concentration: 4mM),NP40-soluble protein abundance (concentration: 6mM),NP40-soluble protein abundance (concentration: 8mM),NP40-soluble protein abundance (concentration: 10mM)
CNOT1 (UniProt A5YKK6),1.1 ± 0.013,1.09 ± 0.033,1.13 ± 0.032,1.19 ± 0.1,1.31 ± 0.18,1.3 ± 0.17,1.33 ± 0.15,1.34 ± 0.15
UniProt A5PLN9 and related entries,1.02 ± 0.078,1.04 ± 0.052,0.99 ± 0.041,0.954 ± 0.05,0.969 ± 0.073,0.951 ± 0.041,0.965 ± 0.014,0.904 ± 0.014
UniProt A4D1P6 and related entries,1.084 ± 0.0011,1.16 ± 0.032,1.1 ± 0.066,1.12 ± 0.088,1.093 ± 0.0044,1.14 ± 0.041,1.08 ± 0.16,1.05 ± 0.09
A0A087WZV0|H0Y9S9 and related entries (UniProt O43314),1 ± 0.011,1.04 ± 0.023,0.959 ± 0.021,0.937 ± 0.018,0.931 ± 0.0053,0.93 ± 0.024,0.928 ± 0.047,0.935 ± 0.035
A0A087WXC5|E7ESZ7 and related entries (UniProt O95299),0.999 ± 0.069,1.06 ± 0.09,1.03 ± 0.064,1.04 ± 0.097,1.01 ± 0.069,1.05 ± 0.083,1.01 ± 0.056,0.988 ± 0.053
A0A087X1K9|E5RGR0 and related entries (UniProt O75608),0.899 ± 0.012,0.884 ± 0.057,0.893 ± 0.055,0.866 ± 0.074,0.839 ± 0.065,0.881 ± 0.083,0.83 ± 0.094,0.821 ± 0.098
UniProt A0MZ66 and related entries,0.905 ± 0.02,0.898 ± 0.068,0.942 ± 0.038,0.931 ± 0.078,0.912 ± 0.019,0.906 ± 0.057,0.921 ± 0.055,0.946 ± 0.074
A0A140T9T7|Q03518 (UniProt Q03518),1.03 ± 0.032,1.032 ± 0.0097,1.01 ± 0.05,1.02 ± 0.035,1.07 ± 0.062,1.06 ± 0.063,1.08 ± 0.03,1.05 ± 0.088
A0A087X1G7|A0A0B4J1S4|O60613 (UniProt O60613),1.06 ± 0.053,1.04 ± 0.093,1.04 ± 0.085,1.06 ± 0.041,1.04 ± 0.045,1.06 ± 0.043,1.07 ± 0.082,1.05 ± 0.061
UniProt A4D1E9 and related entries,1.04 ± 0.087,1.06 ± 0.025,1.06 ± 0.051,1.11 ± 0.099,1.19 ± 0.14,1.19 ± 0.093,1.26 ± 0.14,1.25 ± 0.21
A0A087X0R0|F5H6S1 and related entries (UniProt O15550),1.07 ± 0.1,1.02 ± 0.091,1.1 ± 0.046,1.15 ± 0.083,1.13 ± 0.052,1.09 ± 0.093,1.19 ± 0.1,1.1 ± 0.1
A0A0A0MT32|P38571 and related entries (UniProt P38571),0.943 ± 0.017,0.999 ± 0.066,0.934 ± 0.021,0.928 ± 0.013,0.885 ± 0.035,0.899 ± 0.015,0.981 ± 0.034,0.914 ± 0.0077
A0A0C4DGT4|Q643R3 (UniProt Q643R3),0.953 ± 0.051,0.96 ± 0.066,0.994 ± 0.057,0.973 ± 0.1,0.874 ± 0.099,0.895 ± 0.032,0.9199 ± 0.0058,0.835 ± 0.094
A0A0A0MQR2|Q9BY42 (UniProt Q9BY42),1 ± 0.038,1 ± 0.032,0.985 ± 0.076,0.942 ± 0.1,0.944 ± 0.1,0.947 ± 0.086,0.962 ± 0.072,0.937 ± 0.088
A0A0A0MR85|Q03013 (UniProt Q03013),1.08 ± 0.068,1.07 ± 0.067,1.04 ± 0.078,1.03 ± 0.14,0.929 ± 0.058,0.985 ± 0.071,1 ± 0.11,0.989 ± 0.14
A0A087X256|Q2M389 (UniProt Q2M389),1.04 ± 0.058,1.01 ± 0.097,0.973 ± 0.048,0.975 ± 0.028,0.957 ± 0.028,0.973 ± 0.044,1.02 ± 0.068,0.889 ± 0.024
A0A096LP10|Q9NP73-2 (UniProt Q9NP73),1.04 ± 0.1,0.989 ± 0.02,1.02 ± 0.06,0.89 ± 0.077,0.999 ± 0.12,0.896 ± 0.053,0.985 ± 0.1,0.887 ± 0.022
A0A0A0MT33|Q9UPN6 and related entries (UniProt Q9UPN6),1.05 ± 0.067,1.04 ± 0.091,1.08 ± 0.069,1.09 ± 0.069,1.1 ± 0.029,1.09 ± 0.067,1.13 ± 0.095,1.11 ± 0.059
A0A0U1RRK1|F6XEV2 and related entries (UniProt Q9BPX6),1.17 ± 0.11,1.14 ± 0.072,1.09 ± 0.087,1.09 ± 0.14,1.09 ± 0.17,1.14 ± 0.15,1.15 ± 0.1,1.15 ± 0.15
MEX3A (UniProt A1L020),1.1 ± 0.13,1.08 ± 0.016,1.23 ± 0.36,1.23 ± 0.021,1.11 ± 0.17,1.09 ± 0.081,1.04 ± 0.1,1.06 ± 0.099
A0A0A0MSU2|Q6PJG2 (UniProt Q6PJG2),1.06 ± 0.035,1.12 ± 0.068,1.08 ± 0.071,1.1 ± 0.07,1.07 ± 0.041,1.07 ± 0.045,1.13 ± 0.095,1.14 ± 0.04
A0A0A0MS70|A0A0A0MST0|H0Y4G9 and related entries (UniProt Q99836),1.05 ± 0.15,1.02 ± 0.13,0.916 ± 0.034,0.979 ± 0.15,0.968 ± 0.14,0.929 ± 0.1,0.858 ± 0.13,0.901 ± 0.13

# Laid out differently: results already given
Target	NP40-soluble protein abundance (concentration: 0.1mM)	NP40-soluble protein abundance (concentration: 0.5mM)	NP40-soluble protein abundance (concentration: 1mM)	NP40-soluble protein abundance (concentration: 2mM)	NP40-soluble protein abundance (concentration: 4mM)	NP40-soluble protein abundance (concentration: 6mM)	NP40-soluble protein abundance (concentration: 8mM)	NP40-soluble protein abundance (concentration: 10mM)
A0A087WZV0|H0Y9S9 and related entries (UniProt O43314)	1 ± 0.011	1.04 ± 0.023	0.959 ± 0.021	0.937 ± 0.018	0.931 ± 0.0053	0.93 ± 0.024	0.928 ± 0.047	0.935 ± 0.035
A0A087WXC5|E7ESZ7 and related entries (UniProt O95299)	0.999 ± 0.069	1.06 ± 0.09	1.03 ± 0.064	1.04 ± 0.097	1.01 ± 0.069	1.05 ± 0.083	1.01 ± 0.056	0.988 ± 0.053
A0A087X1K9|E5RGR0 and related entries (UniProt O75608)	0.899 ± 0.012	0.884 ± 0.057	0.893 ± 0.055	0.866 ± 0.074	0.839 ± 0.065	0.881 ± 0.083	0.83 ± 0.094	0.821 ± 0.098
UniProt A0MZ66 and related entries	0.905 ± 0.02	0.898 ± 0.068	0.942 ± 0.038	0.931 ± 0.078	0.912 ± 0.019	0.906 ± 0.057	0.921 ± 0.055	0.946 ± 0.074
